# The other results are listed elsewhere or left out.
# B1: Endo180d1-D4 (Homo sapiens), Q9UBG0 (protein)
# chain: MGPGRPAPAPWPRHLLRCVLLLGCLHLGRPGAPGDAALPEPNVFLIFSHGLQGCLEAQGGQVRVTPACNTSLPAQRWKWVSRNRLFNLGTMQCLGTGWPGTNTTASLGMYECDREALNLRWHCRTLGDQLSLLLGARTSNISKPGTLERGDQTRSGQWRIYGSEEDLCALPYHEVYTIQGNSHGKPCTIPFKYDNQWFHGCTSTGREDGHLWCATTQDYGKDERWGFCPIKSNDCETFWDKDQLTDSCYQFNFQSTLSWREAWASCEQQGADLLSITEIHEQTYINGLLTGYSSTLWIGLNDLDTSGGWQWSDNSPLKYLNWESDQPDNPSEENCGVIRTESSGGWQNRDCSIALPYVCKKKPNATAEPTPPDRWANVKVECEPSWQPFQGHCYRLQAEKRSWQESKKACLRGGGDLVSIHSMAELEFITKQIKQEVEELWIGLNDLKLQMNFEWSDGSLVSFTHWHPFEPNNFRDSLEDCVTIWGPEGRWNDSPCNQSLPSICKKAGQLSQGAAEEDHGCRKGWTWHSPSCYWLGEDQVTYSEARRLCTDHGSQLVTITNRFEQAFVSSLIYNWEGEYFWTALQDLNSTGSFFWLSGDEVMYTHWNRDQPGYSRGGCVALATGSAMGLWEVKNCTSFRARYICRQSLGTPVTPELPGPDPTPSLTGSCPQGWASDTKLRYCYKVFSSERLQDKKSWVQAQGACQELGAQLLSLASYEEEHFVANMLNKIFGESEPEIHEQHWFWIGLNRRDPRGGQSWRWSDGVGFSYHNFDRSRHDDDDIRGCAVLDLASLQWVAMQCDTQLDWICKIPRGTDVREPDDSPQGRREWLRFQEAEYKFFEHHSTWAQAQRICTWFQAELTSVHSQAELDFLSHNLQKFSRAQEQHWWIGLHTSESDGRFRWTDGSIINFISWAPGKPRPVGKDKKCVYMTASREDWGDQRCLTALPYICKRSNVTKETQPPDLPTTALGGCPSDWIQFLNKCFQVQGQEPQSRVKWSEAQFSCEQQEAQLVTITNPLEQAFITASLPNVTFDLWIGLHASQRDFQWVEQEPLMYANWAPGEPSGPSPAPSGNKPTSCAVVLHSPSAHFTGRWDDRSCTEETHGFICQKGTDPSLSPSPAALPPAPGTELSYLNGTFRLLQKPLRWHDALLLCESHNASLAYVPDPYTQAFLTQAARGLRTPLWIGLAGEEGSRRYSWVSEEPLNYVGWQDGEPQQPGGCTYVDVDGAWRTTSCDTKLQGAVCGVSSGPPPPRRISYHGSCPQGLADSAWIPFREHCYSFHMELLLGHKEARQRCQRAGGAVLSILDEMENVFVWEHLQSYEGQSRGAWLGMNFNPKGGTLVWQDNTAVNYSNWGPPGLGPSMLSHNSCYWIQSNSGLWRPGACTNITMGVVCKLPRAEQSSFSPSALPENPAALVVVLMAVLLLLALLTAALILYRRRQSIERGAFEGARYSRSSSSPTEATEKNILVSDMEMNEQQE
# Assays:
# Assay in all cases: glycan array binding signal (z-score within array); higher = stronger binding
# Conditions in all cases: glycan notation: IUPAC condensed, linker removed
# [1] = target: Fuc(a1-2)[GalNAc(a1-3)]Gal(b1-3)GlcNAc(b1-2)Man(a1-3)[Fuc(a1-2)[GalNAc(a1-3)]Gal(b1-3)GlcNAc(b1-2)Man(a1-6)]Man(b1-4)GlcNAc(b1-4)[Fuc(a1-6)]GlcNAc
# Summary of the method: (§1)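 Negative Z-scores can be read as non-binding. The Z-score is calculated within each array and then averaged across arrays of one protein sequence at different concentrations or buffers and across linkers. Arrays, 3228 in all, were curated from the Consortium for Functional Glycomics database and kept only where the protein sequence was available.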
# [2] = target: Fuc(a1-2)[GalNAc(a1-3)]Gal(b1-3)GlcNAc(b1-3)GalNAc
# Summary of the method: as §1
# [3] = target: Fuc(a1-2)[GalNAc(a1-3)]Gal(b1-3)GlcNAc(b1-6)GalNAc
# Summary of the method: as §1
# [4] = target: Fuc(a1-2)[GalNAc(a1-3)]Gal(b1-4)Glc
# Summary of the method: as §1
# [5] = target: Fuc(a1-2)[GalNAc(a1-3)]Gal(b1-4)GlcNAc
# Summary of the method: as §1
# [6] = target: Fuc(a1-2)[GalNAc(a1-3)]Gal(b1-4)GlcNAc(b1-2)Man
# Summary of the method: as §1
# [7] = target: Fuc(a1-2)[GalNAc(a1-3)]Gal(b1-4)GlcNAc(b1-2)Man(a1-3)[Fuc(a1-2)[GalNAc(a1-3)]Gal(b1-4)GlcNAc(b1-2)Man(a1-6)]Man(b1-4)GlcNAc(b1-4)GlcNAc
# Summary of the method: as §1
# [8] = target: Fuc(a1-2)[GalNAc(a1-3)]Gal(b1-4)GlcNAc(b1-2)Man(a1-3)[Fuc(a1-2)[GalNAc(a1-3)]Gal(b1-4)GlcNAc(b1-2)Man(a1-6)]Man(b1-4)GlcNAc(b1-4)[Fuc(a1-6)]GlcNAc
# Summary of the method: as §1
# [9] = target: Fuc(a1-2)[GalNAc(a1-3)]Gal(b1-4)GlcNAc(b1-3)Gal(b1-4)GlcNAc
# Summary of the method: as §1
# [10] = target: Fuc(a1-2)[GalNAc(a1-3)]Gal(b1-4)GlcNAc(b1-3)Gal(b1-4)GlcNAc(b1-3)Gal(b1-4)GlcNAc
# Summary of the method: as §1
# [11] = target: Fuc(a1-2)[GalNAc(a1-3)]Gal(b1-4)GlcNAc(b1-3)GalNAc
# Summary of the method: as §1
# [12] = target: Fuc(a1-2)[GalNAc(a1-3)]Gal(b1-4)GlcNAc(b1-3)[Fuc(a1-2)[GalNAc(a1-3)]Gal(b1-4)GlcNAc(b1-6)]GalNAc
# Summary of the method: as §1
# [13] = target: Fuc(a1-2)[GalNAc(a1-3)]Gal(b1-4)GlcNAc(b1-6)GalNAc
# Summary of the method: as §1
# [14] = target: Fuc(a1-2)[GalNAc(a1-3)]Gal(b1-4)[Fuc(a1-3)]GlcNAc
# Summary of the method: as §1
# [15] = target: Fuc(a1-2)[GalNAc(a1-3)]Gal(b1-4)[Fuc(a1-3)]GlcNAc(b1-3)GalNAc
# Summary of the method: as §1
# [16] = target: Fuc(a1-2)[GalNAc(a1-4)]Gal(b1-4)GlcNAc
# Summary of the method: as §1
# [17] = target: Fuc(a1-2)[GalNAc(b1-3)]Gal
# Summary of the method: as §1
# Fuc(a1-3)GlcNAc = target: Fuc(a1-3)GlcNAc
# Summary of the method: as §1
# [18] = target: Fuc(a1-3)[Gal(b1-4)]Glc6S
# Summary of the method: as §1
# [19] = target: Fuc(a1-3)[Gal(b1-4)]GlcNAc
# Summary of the method: as §1
# [20] = target: Fuc(a1-3)[Gal(b1-4)]GlcNAc(b1-2)Man
# Summary of the method: as §1
# [21] = target: Fuc(a1-3)[Gal(b1-4)]GlcNAc(b1-2)Man(a1-3)[Fuc(a1-3)[Gal(b1-4)]GlcNAc(b1-2)Man(a1-6)]Man(b1-4)GlcNAc(b1-4)GlcNAc
# Summary of the method: as §1
# [22] = target: Fuc(a1-3)[Gal(b1-4)]GlcNAc(b1-2)Man(a1-3)[Fuc(a1-3)[Gal(b1-4)]GlcNAc(b1-2)Man(a1-6)]Man(b1-4)GlcNAc(b1-4)[Fuc(a1-6)]GlcNAc
# Summary of the method: as §1
# [23] = target: Fuc(a1-3)[Gal(b1-4)]GlcNAc(b1-3)Gal(b1-3)[Fuc(a1-4)]GlcNAc
# Summary of the method: as §1
# [24] = target: Fuc(a1-3)[Gal(b1-4)]GlcNAc(b1-3)Gal(b1-4)[Fuc(a1-3)]GlcNAc
# Summary of the method: as §1
# [25] = target: Fuc(a1-3)[Gal(b1-4)]GlcNAc(b1-3)Gal(b1-4)[Fuc(a1-3)]GlcNAc(b1-3)Gal(b1-4)[Fuc(a1-3)]GlcNAc
# Summary of the method: as §1
# [26] = target: Fuc(a1-3)[Gal(b1-4)]GlcNAc(b1-3)GalNAc
# Summary of the method: as §1
# [27] = target: Fuc(a1-3)[Gal(b1-4)]GlcNAc(b1-4)Gal(b1-4)[Fuc(a1-3)]GlcNAc
# Summary of the method: as §1
# [28] = target: Fuc(a1-3)[Gal(b1-4)]GlcNAc(b1-4)Gal(b1-4)[Fuc(a1-3)]GlcNAc(b1-4)Gal(b1-4)[Fuc(a1-3)]GlcNAc
# Summary of the method: as §1
# [29] = target: Fuc(a1-3)[Gal(b1-4)]GlcNAc(b1-6)GalNAc
# Summary of the method: as §1
# [30] = target: Fuc(a1-3)[Gal(b1-4)]GlcNAc(b1-6)[Gal(b1-3)GlcNAc(b1-3)]Gal(b1-4)Glc
# Summary of the method: as §1
# [31] = target: Fuc(a1-3)[Gal(b1-4)]GlcNAc6S
# Summary of the method: as §1
# [32] = target: Fuc(a1-3)[Gal3S(b1-4)]Glc
# Summary of the method: as §1
# [33] = target: Fuc(a1-3)[Gal3S(b1-4)]GlcNAc
# Summary of the method: as §1
# [34] = target: Fuc(a1-3)[Gal3S(b1-4)]GlcNAc6S
# Summary of the method: as §1
# [35] = target: Fuc(a1-3)[GalNAc(b1-4)]GlcNAc
# Summary of the method: as §1
# [36] = target: Fuc(a1-3)[GalNAc(b1-4)]GlcNAc6S
# Summary of the method: as §1
# Fuc(a1-4)GlcNAc = target: Fuc(a1-4)GlcNAc
# Summary of the method: as §1
# Fuc(b1-3)GlcNAc = target: Fuc(b1-3)GlcNAc
# Summary of the method: as §1
# Gal(a1-2)Gal = target: Gal(a1-2)Gal
# Summary of the method: as §1
# Gal(a1-3)Gal = target: Gal(a1-3)Gal
# Summary of the method: as §1
# Gal(a1-3)Gal(b1-3)GlcNAc = target: Gal(a1-3)Gal(b1-3)GlcNAc
# Summary of the method: as §1
# [37] = target: Gal(a1-3)Gal(b1-3)GlcNAc(b1-2)Man
# Summary of the method: as §1
# [38] = target: Gal(a1-3)Gal(b1-3)GlcNAc(b1-2)Man(a1-3)[Gal(a1-3)Gal(b1-3)GlcNAc(b1-2)Man(a1-6)]Man(b1-4)GlcNAc(b1-4)GlcNAc
# Summary of the method: as §1
# [39] = target: Gal(a1-3)Gal(b1-3)GlcNAc(b1-3)GalNAc
# Summary of the method: as §1
binder,measurement,setting,value
B1,glycan array binding signal (z-score),[1],0
same,glycan array binding signal (z-score),[2],0.609
same,glycan array binding signal (z-score),[3],-0.539
same,glycan array binding signal (z-score),[4],0.001
same,glycan array binding signal (z-score),[5],0.403
same,glycan array binding signal (z-score),[6],0.219
same,glycan array binding signal (z-score),[7],-0.645
same,glycan array binding signal (z-score),[8],-0.407
same,glycan array binding signal (z-score),[9],-0.599
same,glycan array binding signal (z-score),[10],0.363
same,glycan array binding signal (z-score),[11],-0.354
same,glycan array binding signal (z-score),[12],0.059
same,glycan array binding signal (z-score),[13],0.821
same,glycan array binding signal (z-score),[14],-0.079
same,glycan array binding signal (z-score),[15],0.369
same,glycan array binding signal (z-score),[16],0.451
same,glycan array binding signal (z-score),[17],0.61
same,glycan array binding signal (z-score),Fuc(a1-3)GlcNAc,0.335
same,glycan array binding signal (z-score),[18],0.331
same,glycan array binding signal (z-score),[19],-0.373
same,glycan array binding signal (z-score),[20],-1.59
same,glycan array binding signal (z-score),[21],-0.277
same,glycan array binding signal (z-score),[22],1.1
same,glycan array binding signal (z-score),[23],0.241
same,glycan array binding signal (z-score),[24],0.229
same,glycan array binding signal (z-score),[25],0.366
same,glycan array binding signal (z-score),[26],0.291
same,glycan array binding signal (z-score),[27],-0.291
same,glycan array binding signal (z-score),[28],-0.146
same,glycan array binding signal (z-score),[29],-0.85
same,glycan array binding signal (z-score),[30],-0.571
same,glycan array binding signal (z-score),[31],-0.08
same,glycan array binding signal (z-score),[32],0.053
same,glycan array binding signal (z-score),[33],-0.348
same,glycan array binding signal (z-score),[34],0.23
same,glycan array binding signal (z-score),[35],0.1
same,glycan array binding signal (z-score),[36],-0.564
same,glycan array binding signal (z-score),Fuc(a1-4)GlcNAc,-0.559
same,glycan array binding signal (z-score),Fuc(b1-3)GlcNAc,-0.204
same,glycan array binding signal (z-score),Gal(a1-2)Gal,-0.141
same,glycan array binding signal (z-score),Gal(a1-3)Gal,-0.012
same,glycan array binding signal (z-score),Gal(a1-3)Gal(b1-3)GlcNAc,-0.062
same,glycan array binding signal (z-score),[37],0.453
same,glycan array binding signal (z-score),[38],0.858
same,glycan array binding signal (z-score),[39],0.03

# Looked up one by one from the entries so far, two records:
binder,measurement,setting,value
B1,glycan array binding signal (z-score),[3],-0.539
same,glycan array binding signal (z-score),[36],-0.564

# Reference: the supplement of paper PMC8728848
